Results reported in patent CN117247456A.
These are yes or no findings as the source states them, for the method shown. Some binding calls cover weakened binding; strength is not graded here.

The chains behind the UniProt entries cited, without tags or fusion partners. Where a name states a change or a piece, a line headed by the entry shows the natural chain unless it says otherwise. A line that says so, or that is headed by a name, gives the form on record, which may keep a tag or linker.
重组人VEGF-His (P15692, form named): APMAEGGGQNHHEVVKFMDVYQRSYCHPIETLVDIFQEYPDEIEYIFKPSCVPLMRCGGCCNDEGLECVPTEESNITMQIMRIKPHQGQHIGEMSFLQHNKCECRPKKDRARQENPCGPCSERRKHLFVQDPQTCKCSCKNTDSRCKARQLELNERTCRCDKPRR

Biological target: 重组人VEGF-His (human) (UniProt P15692)
Assay: SPR, Biacore T200, VEGF-His as analyte (reference antibody)

binding: binds
B1: 抗人VEGF抗体P30-10-26 (antibody, V domains shown, not shown: a dimerising Fc or GST)
VH: EVQLVESGGGLVQPGGSLRLSCAASGFGLDYYAIGWFRQAPGKEREGVSCIGSSSKETNYADSVKGRFTISRDNAKNTVYLQMNSLRAEDTAVYYCTAGSPLCLISLQDHYGLYEYDYWGQGTLVTVSS
